Reference: article PMC7806930

The chains behind the UniProt entries cited, without tags or fusion partners. Where a name states a change or a piece, a line headed by the entry shows the natural chain unless it says otherwise.
UniProt Q16236: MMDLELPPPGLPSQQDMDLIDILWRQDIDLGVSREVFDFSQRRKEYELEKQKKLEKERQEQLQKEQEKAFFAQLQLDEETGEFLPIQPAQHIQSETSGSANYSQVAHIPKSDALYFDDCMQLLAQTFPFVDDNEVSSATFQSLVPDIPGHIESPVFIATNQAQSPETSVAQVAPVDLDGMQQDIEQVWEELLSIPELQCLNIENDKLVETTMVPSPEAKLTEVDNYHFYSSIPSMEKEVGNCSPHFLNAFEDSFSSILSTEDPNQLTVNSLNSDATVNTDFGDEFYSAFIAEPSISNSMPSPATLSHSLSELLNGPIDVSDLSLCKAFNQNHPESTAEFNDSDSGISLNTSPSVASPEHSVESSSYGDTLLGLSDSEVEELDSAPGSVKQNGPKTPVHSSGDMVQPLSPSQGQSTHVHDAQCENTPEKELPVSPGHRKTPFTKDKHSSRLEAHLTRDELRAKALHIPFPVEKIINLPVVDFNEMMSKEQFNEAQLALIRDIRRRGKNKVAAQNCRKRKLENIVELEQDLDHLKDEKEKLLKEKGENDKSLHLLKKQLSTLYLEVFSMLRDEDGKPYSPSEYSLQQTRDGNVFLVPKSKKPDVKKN
UniProt Q16665: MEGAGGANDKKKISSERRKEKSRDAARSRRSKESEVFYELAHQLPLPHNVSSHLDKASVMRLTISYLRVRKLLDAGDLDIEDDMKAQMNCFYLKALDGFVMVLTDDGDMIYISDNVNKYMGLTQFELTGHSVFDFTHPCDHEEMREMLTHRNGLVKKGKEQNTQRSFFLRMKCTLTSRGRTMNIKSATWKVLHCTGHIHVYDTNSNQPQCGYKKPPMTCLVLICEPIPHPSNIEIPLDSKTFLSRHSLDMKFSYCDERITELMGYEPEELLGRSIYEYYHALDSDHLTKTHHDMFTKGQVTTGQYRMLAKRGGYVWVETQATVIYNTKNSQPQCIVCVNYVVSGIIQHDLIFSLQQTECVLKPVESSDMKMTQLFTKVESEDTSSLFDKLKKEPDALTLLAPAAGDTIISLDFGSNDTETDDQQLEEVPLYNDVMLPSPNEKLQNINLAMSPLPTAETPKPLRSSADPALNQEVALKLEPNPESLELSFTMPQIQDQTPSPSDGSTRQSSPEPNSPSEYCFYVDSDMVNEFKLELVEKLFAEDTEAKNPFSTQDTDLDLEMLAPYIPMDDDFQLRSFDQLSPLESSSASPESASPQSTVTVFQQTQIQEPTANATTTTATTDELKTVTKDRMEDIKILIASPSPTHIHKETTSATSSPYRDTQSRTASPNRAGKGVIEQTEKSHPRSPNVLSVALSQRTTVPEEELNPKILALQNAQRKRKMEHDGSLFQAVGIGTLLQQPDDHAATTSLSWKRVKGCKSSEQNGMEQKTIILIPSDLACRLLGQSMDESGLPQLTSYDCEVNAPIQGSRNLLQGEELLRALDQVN

Target: Flag-NRF2 (NF-E2-related factor 2) (UniProt Q16236)
Experiment: co-IP; HEK293T cells co-transfected with Flag-NRF2 and p(HA)HIF1alpha-P402A-P564A, 48 h; lysed in caspase lysis buffer; Flag antibody 4 h at 4 °C, then magnetic beads 1 h; washed 4x; western blot with anti-NRF2 and anti-HA; control IP without antibody

Substance: (HA)HIF1alpha (P402A,P564A), non-degradable/oxygen-stable form of HIF-1α (from UniProt Q16665 1-826)
- binding: binds

These are yes or no findings as the source states them, for the method shown. Binding seen in cells or lysates may run through a third protein. Binding can be weak; no strength is given.
